In patent publication US20030045691A1:
No constants are given. Whether binding was seen depends on the method and setting. Some binding calls cover weakened binding; strength is not graded here.

Sequences of proteins named here, by UniProt entry; tags and fusion partners are left off. A change or cut given only in a name is not applied to a line headed by its entry.
UniProt Q10589: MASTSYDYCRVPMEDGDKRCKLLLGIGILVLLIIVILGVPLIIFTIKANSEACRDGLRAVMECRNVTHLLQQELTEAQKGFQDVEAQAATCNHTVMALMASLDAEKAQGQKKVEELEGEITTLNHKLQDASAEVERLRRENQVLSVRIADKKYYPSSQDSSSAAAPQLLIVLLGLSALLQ

Tests used:
[1] = target: HM 1.24 antigen polypeptide (human) (UniProt Q10589); test: competition Cell-ELISA on fixed WISH cells; competitor biotinylated mouse anti-HM 1.24 antibody
[2] = target: HM 1.24 antigen polypeptide (human) (UniProt Q10589); test: Cell-ELISA on fixed WISH cells, direct binding and competition with biotinylated mouse anti-HM 1.24 antibody
[3] = target: HM 1.24 antigen polypeptide (human) (UniProt Q10589); test: flow cytometry on KPMM2 cells
[4] = target: HM 1.24 antigen polypeptide (human) (UniProt Q10589); test: flow cytometry on KPMM2 cells, COS-7 culture supernatant
[5] = target: HM 1.24 antigen polypeptide (human) (UniProt Q10589); test: Cell-ELISA on fixed WISH cells
[6] = target: HM 1.24 antigen polypeptide (human) (UniProt Q10589); test: Cell-ELISA on fixed WISH cells, COS-7 supernatant concentrate
[7] = target: HM 1.24 antigen polypeptide (human) (UniProt Q10589); test: expression cloning: panning of cDNA-transfected COS-7 cells on dishes coated with the antibody
[8] = target: HM 1.24 antigen polypeptide (human) (UniProt Q10589); test: flow cytometry on KPMM2 cells, purified antibody
[9] = target: HM 1.24 antigen polypeptide (human) (UniProt Q10589); test: binding inhibition activity, competition Cell-ELISA on fixed WISH cells; competitor biotinylated mouse anti-HM 1.24 antibody
[10] = target: HM 1.24 antigen polypeptide (human) (UniProt Q10589); test: antigen binding activity, Cell-ELISA on fixed WISH cells
[11] = target: HM 1.24 antigen polypeptide (human) (UniProt Q10589); test: Cell-ELISA on fixed WISH cells, CHO-produced purified antibody, direct binding and competition with biotinylated mouse anti-HM 1.24 antibody

Row | Binder | binding [2] | binding [9] | binding [10] | further results
1 | chimeric anti-HM 1.24 antibody (antibody, V domains shown) VH: QVQLQQSGAELARPGASVKLSCKASGYTFTPYWMQWVKQRPGQGLEWIGSIFPGDGDTRYSQKFKGKATLTADKSSSTAYMQLSILAFEDSAVYYCARGLRRGGYYFDYWGQGTTLTVSS VL: DIVMTQSHKFMSTSVGDRVSITCKASQDVNTAVAWYQQKPGQSPKLLIYSASNRYTGVPDRITGSGSGTDFTFTISSVQAEDLALYYCQQHYSTPFTFGSGTKLEIK | binds | – | – | binding [1]: binds; binding [3]: binds; binding [4]: binds; binding [5]: binds; binding [6]: binds
2 | mouse anti-HM 1.24 monoclonal antibody (antibody, V domains shown) VH: QVQLQQSGAELARPGASVKLSCKASGYTFTPYWMQWVKQRPGQGLEWIGSIFPGDGDTRYSQKFKGKATLTADKSSSTAYMQLSILAFEDSAVYYCARGLRRGGYYFDYWGQGTTLTVSS VL: DIVMTQSHKFMSTSVGDRVSITCKASQDVNTAVAWYQQKPGQSPKLLIYSASNRYTGVPDRITGSGSGTDFTFTISSVQAEDLALYYCQQHYSTPFTFGSGTKLEIK | – | – | – | binding [1]: binds; binding [7]: binds; binding [3]: binds; binding [8]: binds
3 | human mouse hybrid anti-HM 1.24 antibody (antibody, V domains shown) VH: QVQLVQSGAEVKKPGASVKVSCKASGYTFTPYWMQWVRQAPGQGLEWMGSIFPGDGDTRYSQKFKGKATLTADKSSSTAYMQLSILAFEDSAVYYCARGLRRGGYYFDYWGQGTTLTVSS VL: DIQMTQSPSSLSASVGDRVTITCKASQDVNTAVAWYQQKPGKAPKLLIYSASNRYTGVPSRFSGSGSGTDFTFTISSLQPEDIATYYCQQHYSTPFTFGQGTKVEIK | – | – | – | binding [6]: binds
4 | anti-HM 1.24 antibody comprising version a of the humanized L chain and the chimeric H chain (antibody, V domains shown) VH: QVQLQQSGAELARPGASVKLSCKASGYTFTPYWMQWVKQRPGQGLEWIGSIFPGDGDTRYSQKFKGKATLTADKSSSTAYMQLSILAFEDSAVYYCARGLRRGGYYFDYWGQGTTLTVSS VL: DIQMTQSPSSLSASVGDRVTITCKASQDVNTAVAWYQQKPGKAPKLLIYSASNRYTGVPSRFSGSGSGTDFTFTISSLQPEDIATYYCQQHYSTPFTFGQGTKVEIK | – | – | – | binding [5]: binds; binding [6]: binds
5 | reshaped human anti-HM 1.24 antibody, L chain version a / H chain version i (antibody, V domains shown) VH: QVQLVQSGAEVKKPGASVKVSCKASGYTFTPYWMQWVRQAPGQGLEWMGSIFPGDGDTRYSQKFKGKVTMTADTSSSTAYMELSSLAFEDTAVYYCARGLRRGGYYFDYWGQGTTVTVSS VL: DIQMTQSPSSLSASVGDRVTITCKASQDVNTAVAWYQQKPGKAPKLLIYSASNRYTGVPSRFSGSGSGTDFTFTISSLQPEDIATYYCQQHYSTPFTFGQGTKVEIK | binds | binds | binds | –
6 | reshaped human anti-HM 1.24 antibody, L chain version a / H chain version k (antibody, V domains shown) VH: QVQLVQSGAEVKKPGASVKVSCKASGYTFTPYWMQWVRQAPGQGLEWMGSIFPGDGDTRYSQKFKGKVTMTADTSSSTAYMQLSSLRSEDTAVYYCARGLRRGGYYFDYWGQGTTVTVSS VL: DIQMTQSPSSLSASVGDRVTITCKASQDVNTAVAWYQQKPGKAPKLLIYSASNRYTGVPSRFSGSGSGTDFTFTISSLQPEDIATYYCQQHYSTPFTFGQGTKVEIK | binds | binds | binds | –
7 | reshaped human anti-HM 1.24 antibody, L chain version a / H chain version j (antibody, V domains shown) VH: QVQLVQSGAEVKKPGASVKVSCKASGYTFTPYWMQWVRQAPGQGLEWMGSIFPGDGDTRYSQKFKGKATLTADTSSSTAYMELSSLRSEDTAVYYCARGLRRGGYYFDYWGQGTTVTVSS VL: DIQMTQSPSSLSASVGDRVTITCKASQDVNTAVAWYQQKPGKAPKLLIYSASNRYTGVPSRFSGSGSGTDFTFTISSLQPEDIATYYCQQHYSTPFTFGQGTKVEIK | binds | binds | binds | –

Now from value to binder, other results behind:

Row | binding [2] | binding [9] | binding [10] | Binder | further results
8 | binds | – | – | reshaped human anti-HM 1.24 antibody, L chain version a / H chain version s (antibody, V domains shown) VH: QVQLVQSGAEVKKPGASVKVSCKASGYTFTPYWMQWVRQAPGQGLEWMGSIFPGDGDTRYSQKFKGRVTITADKSTSTAYMELSSLRSEDTAVYYCARGLRRGGYYFDYWGQGTTVTVSS VL: DIQMTQSPSSLSASVGDRVTITCKASQDVNTAVAWYQQKPGKAPKLLIYSASNRYTGVPSRFSGSGSGTDFTFTISSLQPEDIATYYCQQHYSTPFTFGQGTKVEIK | binding [1]: binds; binding [5]: binds
9 | binds | binds | binds | reshaped human anti-HM 1.24 antibody, L chain version a / H chain version l (antibody, V domains shown) VH: QVQLVQSGAEVKKPGASVKVSCKASGYTFTPYWMQWVRQAPGQGLEWMGSIFPGDGDTRYSQKFKGKVTMTADTSSSTAYMQLSILRSEDTAVYYCARGLRRGGYYFDYWGQGTTVTVSS VL: DIQMTQSPSSLSASVGDRVTITCKASQDVNTAVAWYQQKPGKAPKLLIYSASNRYTGVPSRFSGSGSGTDFTFTISSLQPEDIATYYCQQHYSTPFTFGQGTKVEIK | –
10 | binds | binds | binds | reshaped human anti-HM 1.24 antibody, L chain version a / H chain version o (antibody, V domains shown) VH: QVQLVQSGAEVKKPGASVKVSCKASGYTFTPYWMQWVRQAPGQGLEWMGSIFPGDGDTRYSQKFKGKVTMTADTSSSTAYMELSSLRSEDSAVYYCARGLRRGGYYFDYWGQGTTVTVSS VL: DIQMTQSPSSLSASVGDRVTITCKASQDVNTAVAWYQQKPGKAPKLLIYSASNRYTGVPSRFSGSGSGTDFTFTISSLQPEDIATYYCQQHYSTPFTFGQGTKVEIK | –
11 | binds | binds | binds | reshaped human anti-HM 1.24 antibody, L chain version a / H chain version m (antibody, V domains shown) VH: QVQLVQSGAEVKKPGASVKVSCKASGYTFTPYWMQWVRQAPGQGLEWMGSIFPGDGDTRYSQKFKGKVTMTADTSSSTAYMQLSILRSEDSAVYYCARGLRRGGYYFDYWGQGTTVTVSS VL: DIQMTQSPSSLSASVGDRVTITCKASQDVNTAVAWYQQKPGKAPKLLIYSASNRYTGVPSRFSGSGSGTDFTFTISSLQPEDIATYYCQQHYSTPFTFGQGTKVEIK | –
12 | binds | binds | binds | reshaped human anti-HM 1.24 antibody, L chain version a / H chain version n (antibody, V domains shown) VH: QVQLVQSGAEVKKPGASVKVSCKASGYTFTPYWMQWVRQAPGQGLEWMGSIFPGDGDTRYSQKFKGKVTMTADTSSSTAYMELSILRSEDTAVYYCARGLRRGGYYFDYWGQGTTVTVSS VL: DIQMTQSPSSLSASVGDRVTITCKASQDVNTAVAWYQQKPGKAPKLLIYSASNRYTGVPSRFSGSGSGTDFTFTISSLQPEDIATYYCQQHYSTPFTFGQGTKVEIK | –
13 | binds | binds | binds | reshaped human anti-HM 1.24 antibody, L chain version a / H chain version p (antibody, V domains shown) VH: QVQLVQSGAEVKKPGASVKVSCKASGYTFTPYWMQWVRQAPGQGLEWMGSIFPGDGDTRYSQKFKGRVTMTADTSTSTAYMELSSLRSEDTAVYYCARGLRRGGYYFDYWGQGTTVTVSS VL: DIQMTQSPSSLSASVGDRVTITCKASQDVNTAVAWYQQKPGKAPKLLIYSASNRYTGVPSRFSGSGSGTDFTFTISSLQPEDIATYYCQQHYSTPFTFGQGTKVEIK | –
14 | binds | binds | binds | reshaped human anti-HM 1.24 antibody, L chain version a / H chain version r (antibody, V domains shown) VH: QVQLVQSGAEVKKPGASVKVSCKASGYTFTPYWMQWVRQAPGQGLEWMGSIFPGDGDTRYSQKFKGRVTMTADKSTSTAYMELSSLRSEDTAVYYCARGLRRGGYYFDYWGQGTTVTVSS VL: DIQMTQSPSSLSASVGDRVTITCKASQDVNTAVAWYQQKPGKAPKLLIYSASNRYTGVPSRFSGSGSGTDFTFTISSLQPEDIATYYCQQHYSTPFTFGQGTKVEIK | binding [1]: binds; binding [11]: binds; binding [5]: binds
